The values that follow come from publication PMC11372188.

By UniProt entry, the sequences of proteins in these tests, tags left out.
UniProt P49841: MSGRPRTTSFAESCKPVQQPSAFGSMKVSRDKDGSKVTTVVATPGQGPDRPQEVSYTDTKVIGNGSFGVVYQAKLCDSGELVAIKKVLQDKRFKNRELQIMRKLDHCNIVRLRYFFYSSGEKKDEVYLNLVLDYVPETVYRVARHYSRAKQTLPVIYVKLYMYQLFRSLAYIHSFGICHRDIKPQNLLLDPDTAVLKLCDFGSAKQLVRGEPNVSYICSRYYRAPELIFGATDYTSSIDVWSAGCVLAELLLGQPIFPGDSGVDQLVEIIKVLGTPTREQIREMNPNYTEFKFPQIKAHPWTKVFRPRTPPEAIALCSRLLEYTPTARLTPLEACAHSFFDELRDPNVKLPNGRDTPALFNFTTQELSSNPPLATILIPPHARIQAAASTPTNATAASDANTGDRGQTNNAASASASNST

No constants are given. Whether binding was seen depends on the method and setting. In cells and extracts the contact can be indirect. Some binding calls cover weakened binding; strength is not graded here.

The experiment concerns the target glycogen synthase kinase 3β (GSK3β) (human (endogenous in H1975/OR and PC9/OR)) (UniProt P49841). Description: co-IP; endogenous proteins in lysates of H1975/OR and PC9/OR cells (IP/Western lysing solution with phosphatase and protease inhibitor cocktails); antibodies on protein A/G magnetic beads, overnight with protein extracts at 4 °C, three washes, immunoblotting; IgG as negative control.

With “proviral integration site for Moloney murine leukemia virus 1 (PIM1) (from UniProt P11309-1 1-313)”, the binding result is given as “binds”.
